Values from PubChem BioAssay AID1259405 (NCATS, 2018)

- Test: 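Mouse-designed siRNAs used to find CHO productivity engineering targets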 (primary screen)
- Cell system: Chinese hamster CHO-K1 ovary cells with stable secreted eGFP expression
- Reagent: single siRNA against mouse genes, 0.8 pmol siRNA per well (2 µl of 400 nM stock)
- Timing: 3 days
- Read-out: 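Per-well intracellular GFP measured by laser scanning cytometry, plus viability from ATP luminescence, each relative to plate median of non-targeting control wells, in %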
- Scale: GFP, % of control: higher = more GFP per well, higher productivity; viability (ATP), % of control: higher = more viable cells (more ATP)
- Active means: 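Called active when intracellular GFP, relative to negative control, is at or above 120%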
Here is a random part of about 50,000 reagents. In the full data, about 4,000 (8%) got an active call. 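Mouse siRNA library applied to hamster cells; one well for each siRNA.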 Reagents against one gene are numbered here. Reagent sequences are not shown.

no.	gene	reagent	GFP, % of control	viability (ATP), % of control	activity call
1	A530095I07Rik	1	62.9	44	inactive
2	A530095I07Rik	2	81.9	86.5	inactive
3	A530095I07Rik	3	80.4	98.8	inactive
4	Pinx1	1	82.3	93.9	inactive
5	Pinx1	2	49.4	57	inactive
6	Pdss1	1	93.3	131	inactive
7	Pdss1	2	64.1	92.2	inactive
8	Pdss1	3	90.4	110	inactive
9	Man2c1	1	103	108	inactive
10	Man2c1	2	109	112	inactive
11	Man2c1	3	27	50.2	inactive
12	Manbal	1	51.6	50.8	inactive
13	Manbal	2	79.6	74	inactive
14	Manbal	3	87.8	71.8	inactive
15	Lmo3	1	89.6	89.4	inactive
16	Lmo3	2	57.7	40.4	inactive
17	Lmo3	3	57.2	65.3	inactive
18	Zfp597	1	61.5	75.5	inactive
19	Zfp597	2	86.2	85.3	inactive
20	Zfp597	3	75.7	83.6	inactive
21	Or52n4b	1	109	76.5	inactive
22	Or52n4b	2	25.9	29.3	inactive
23	Or52n4b	3	80	84.8	inactive
24	Plppr2	1	62.9	80.9	inactive
25	Plppr2	2	44.3	66.3	inactive
26	Plppr2	3	78.6	79.3	inactive
27	Lzic	1	95.2	58.1	inactive
28	Lzic	2	87	54.3	inactive
29	Lzic	3	82.5	49.1	inactive
30	Mfsd8	1	51.2	73.2	inactive
31	Mfsd8	2	83	103	inactive
32	Mfsd8	3	75.2	85.1	inactive
33	Ppp1r9b	1	19.1	35.9	inactive
34	Ppp1r9b	2	124	80.3	active
35	Insig1	1	38.3	53.6	inactive
36	Insig1	2	33.3	56.5	inactive
37	Insig1	3	87.7	74.2	inactive
38	Avpr1a	1	70	84.8	inactive
39	Avpr1a	2	95.4	88	inactive
40	Avpr1a	3	74.6	77.3	inactive
41	4930555G01Rik	1	62.4	111	inactive
42	4930555G01Rik	2	16.5	59.1	inactive
43	4930555G01Rik	3	55.3	66.9	inactive
44	Zfp120	1	48.1	60.3	inactive
45	Zfp120	2	77.7	76.2	inactive
46	Zfp120	3	42.1	70	inactive
47	Farp2	1	44.2	34.1	inactive
48	Farp2	2	93.2	90.3	inactive
49	Farp2	3	87.4	52.3	inactive
50	Lilrb4b	1	65.8	82.7	inactive
51	Lilrb4b	2	115	94.4	inactive
52	Lilrb4b	3	85.7	90.6	inactive
53	Or1e29	1	40.8	49.9	inactive
54	Or1e29	2	101	94.4	inactive
55	Or1e29	3	77.8	87.5	inactive
56	Oat	1	84.8	81.3	inactive
57	Oat	2	102	151	inactive
58	Oat	3	84.3	84.9	inactive

Quoted from above (8 entries):
no.	gene	reagent	GFP, % of control	viability (ATP), % of control	activity call
43	4930555G01Rik	3	55.3	66.9	inactive
44	Zfp120	1	48.1	60.3	inactive
45	Zfp120	2	77.7	76.2	inactive
46	Zfp120	3	42.1	70	inactive
47	Farp2	1	44.2	34.1	inactive
48	Farp2	2	93.2	90.3	inactive
49	Farp2	3	87.4	52.3	inactive
50	Lilrb4b	1	65.8	82.7	inactive
